Record: PubChem BioAssay AID1259308 (NCATS, 2017)
Purpose: 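Candidate targets for better recombinant protein yield in mammalian cells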 (primary screen). Cells: human HEK293 embryonic kidney cells stably expressing firefly luciferase (HEK-CMV-Luc2-Hygro). Knock-down reagent: single siRNA against human genes, 0.8 pmol siRNA per well. Time to read-out: 72 h. Measured: 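Reporter luminescence and viable-cell signal on separate replicate plates, given as percent of non-targeting control and median/MAD z-scores, plus per-cell luciferase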. Direction: total luciferase, z-score and total luciferase, % of control: higher = more reporter protein produced. Hit rule: 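Active when the median/MAD z-score for overall luciferase is greater than 3; a gene was taken forward for validation with new siRNAs if at least two of its three siRNAs passed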. Calls: active = raised luciferase; inactive = no rise.
The deposit covers about 59,000 reagents; below is a part drawn at random. Over the whole deposit, about 1,510 (2.6%) are marked active. 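Calls use total luciferase alone and ignore viability, so some active siRNAs may act by altering cell number.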 The numbers tell different reagents against one gene apart. Further read-outs or replicates are left out here.

total luciferase, z-score | total luciferase, % of control | outcome | Gene | reagent no.
0.715 | 96.1 | inactive | EXO5 | 1
-0.0796 | 80.3 | inactive | EXO5 | 2
-0.0541 | 80.8 | inactive | EXO5 | 3
1.24 | 107 | inactive | LOC729532 | 1
0.982 | 101 | inactive | LOC729532 | 2
-0.896 | 64.1 | inactive | LOC729532 | 3
-0.455 | 72.8 | inactive | BBS4 | 1
1.14 | 105 | inactive | BBS4 | 2
1.21 | 106 | inactive | BBS4 | 3
-1.16 | 58.8 | inactive | CKAP5 | 1
-1.23 | 57.4 | inactive | CKAP5 | 2
-1.91 | 43.9 | inactive | CKAP5 | 3
1.02 | 102 | inactive | CYP1A2 | 1
0.142 | 84.7 | inactive | CYP1A2 | 2
-0.773 | 66.5 | inactive | CYP1A2 | 3
1.41 | 110 | inactive | PDCL3 | 1
2.31 | 128 | inactive | PDCL3 | 2
0.997 | 102 | inactive | PDCL3 | 3
1.43 | 110 | inactive | HOXB1 | 1
-0.262 | 76.7 | inactive | HOXB1 | 2
1.98 | 121 | inactive | HOXB1 | 3
-0.233 | 77.3 | inactive | LRRC1 | 1
0.071 | 83.3 | inactive | LRRC1 | 2
-0.46 | 72.7 | inactive | LRRC1 | 3

Reformatted: results already given
{"Gene": "CKAP5", "reagent no.": 3, "total luciferase, z-score": -1.91, "total luciferase, % of control": 43.9, "outcome": "inactive"}
{"Gene": "CYP1A2", "reagent no.": 1, "total luciferase, z-score": 1.02, "total luciferase, % of control": 102, "outcome": "inactive"}
{"Gene": "CYP1A2", "reagent no.": 2, "total luciferase, z-score": 0.142, "total luciferase, % of control": 84.7, "outcome": "inactive"}
{"Gene": "CYP1A2", "reagent no.": 3, "total luciferase, z-score": -0.773, "total luciferase, % of control": 66.5, "outcome": "inactive"}

The results go on:
total luciferase, z-score | total luciferase, % of control | outcome | Gene | reagent no.
-0.122 | 79.5 | inactive | HK3 | 1
2.72 | 136 | inactive | HK3 | 2
0.865 | 99.1 | inactive | HK3 | 3
-0.319 | 75.5 | inactive | REV1 | 1
-0.352 | 74.9 | inactive | REV1 | 2
-0.199 | 77.9 | inactive | REV1 | 3
0.462 | 91.1 | inactive | MAPRE1 | 1
0.125 | 84.4 | inactive | MAPRE1 | 2
0.288 | 87.6 | inactive | MAPRE1 | 3
0.846 | 98.7 | inactive | CRKL | 1
0.159 | 85.1 | inactive | CRKL | 2
-0.246 | 77 | inactive | CRKL | 3
1.15 | 105 | inactive | ETV5 | 1
-1.57 | 50.6 | inactive | ETV5 | 2
-2.54 | 31.4 | inactive | ETV5 | 3
1.28 | 107 | inactive | ULBP1 | 1
-0.269 | 76.5 | inactive | ULBP1 | 2
0.81 | 98 | inactive | ULBP1 | 3
-0.44 | 73.1 | inactive | HOXB7 | 1
-1.54 | 51.3 | inactive | HOXB7 | 2
-0.281 | 76.3 | inactive | HOXB7 | 3
0.152 | 84.9 | inactive | SYNPO2L | 1
-0.434 | 73.3 | inactive | SYNPO2L | 2
-0.84 | 65.2 | inactive | SYNPO2L | 3
0.0639 | 83.2 | inactive | BRAF | 1
-0.468 | 72.6 | inactive | BRAF | 2
-1.23 | 57.5 | inactive | BRAF | 3
-1.39 | 54.3 | inactive | SPRED2 | 1
0.196 | 85.8 | inactive | SPRED2 | 2
-0.365 | 74.6 | inactive | SPRED2 | 3
1.76 | 117 | inactive | TAF5L | 1
0.0865 | 83.6 | inactive | TAF5L | 2
1.04 | 102 | inactive | TAF5L | 3
